For experiment [1], the target named is purified glutathione transfer protein (GST) fusion of CLIC4 (UniProt Q9Y696). Briefly: pull-down; converse experiment: purified GST fusion of CLIC4 or GST alone as bait, purified cortactin fragment pulled down (Supplementary Fig. 8e); both purified.
The target of another experiment is Flag-CLIC4 (UniProt Q9Y696). Nature of the experiment: co-IP; HEK 293T cells transiently transfected with mCherry-cortactin and/or Flag-CLIC4; anti-Flag antibody; blots with anti-DsRed and anti-CLIC4.
For experiment [2], the target named is purified recombinant cortactin (aa 82-330) fragment (UniProt Q60598). Briefly: pull-down; purified recombinant cortactin (aa 82-330) fragment as bait, purified CLIC4 pulled down (Supplementary Fig. 8b-d); both purified.

The chains behind the UniProt entries cited, without tags or fusion partners. Where a name states a change or a piece, a line headed by the entry shows the natural chain unless it says otherwise.
UniProt Q9Y696: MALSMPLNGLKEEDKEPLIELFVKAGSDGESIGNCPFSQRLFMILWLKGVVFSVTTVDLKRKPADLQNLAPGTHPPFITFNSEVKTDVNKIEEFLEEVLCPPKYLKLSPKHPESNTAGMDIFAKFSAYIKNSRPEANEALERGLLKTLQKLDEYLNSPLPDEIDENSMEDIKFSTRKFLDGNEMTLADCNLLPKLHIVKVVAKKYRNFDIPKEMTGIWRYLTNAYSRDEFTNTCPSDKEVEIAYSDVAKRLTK
UniProt Q60598: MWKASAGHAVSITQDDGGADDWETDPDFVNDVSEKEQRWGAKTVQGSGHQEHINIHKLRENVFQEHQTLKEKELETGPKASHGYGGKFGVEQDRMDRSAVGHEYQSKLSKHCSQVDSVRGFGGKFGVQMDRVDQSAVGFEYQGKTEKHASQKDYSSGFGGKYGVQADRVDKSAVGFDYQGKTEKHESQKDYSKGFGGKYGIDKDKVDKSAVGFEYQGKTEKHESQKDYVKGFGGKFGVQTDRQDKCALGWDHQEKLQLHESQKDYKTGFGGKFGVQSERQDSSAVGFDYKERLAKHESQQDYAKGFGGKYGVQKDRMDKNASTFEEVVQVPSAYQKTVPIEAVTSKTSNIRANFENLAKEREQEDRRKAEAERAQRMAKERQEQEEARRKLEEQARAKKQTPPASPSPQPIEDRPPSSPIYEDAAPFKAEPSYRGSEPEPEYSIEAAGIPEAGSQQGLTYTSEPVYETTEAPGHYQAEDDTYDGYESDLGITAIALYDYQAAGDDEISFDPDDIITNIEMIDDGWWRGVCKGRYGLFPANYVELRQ

These are yes or no findings as the source states them, for the method shown. For part of these data: In cells and extracts the contact can be indirect. Some binding calls cover weakened binding; strength is not graded here.

Take “purified recombinant cortactin (aa 82-330) fragment (from UniProt Q60598 82-330) (domain or fragment)”: in experiment [1], the binding result is given as “binds”.
As for “mCherry-cortactin (from UniProt Q60598 1-546)”, the binding result with Flag-CLIC4 was “binds”.
As for “purified CLIC4 (from UniProt Q9Y696 1-253)”, in experiment [2], the binding entry was “binds”.
